Source: PubChem BioAssay AID1259254 (NCATS, 2017)
The whole screen tested about 59,000 reagents; below is a random part of them. About 1,550 of them (2.6%) were called active. 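G2 share is only a proxy for re-replication; each gene was hit by three separate siRNAs, and active genes were retested.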 The raw values are shown without normalisation. Reagents against one gene are numbered here. Not stated in the record: the amount of reagent.

Aim: 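Gene knock-downs that lead to re-replication, shown by excess G2 DNA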 (primary screen)
Cells: human HCT116 colorectal cancer cells
Reagents: single siRNA against human genes
Timing: 3 days
Measurement: 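Nuclei stained with Hoechst and imaged; cell-cycle phase assigned by DNA content; G2 share scaled per plate, non-targeting siRNA 0%, GMNN siRNA 100%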
Reading the numbers: G2 robust z-score and G2 cells, % of GMNN control: higher = more G2 cells, more excess DNA replication; raw share of cells in G2: higher = larger share of cells with G2 DNA content
Active means: 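An siRNA counts as active if its G2 robust z-score lies at least 5 MADs above the screen median; here such calls match roughly 38% of GMNN control or more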

no.	gene symbol	siRNA no.	G2 robust z-score	G2 cells, % of GMNN control	raw share of cells in G2 (%)	call
1	EIF2AK1 (GeneID 27102)	1	0.56	6.91	7.74	inactive
2	EIF2AK1 (GeneID 27102)	2	-0.122	2.11	5.96	inactive
3	EIF2AK1 (GeneID 27102)	3	0.0289	3.17	4.7	inactive
4	OSTN (GeneID 344901)	1	0.128	3.87	5.32	inactive
5	OSTN (GeneID 344901)	2	3.11	24.8	14.1	inactive
6	OSTN (GeneID 344901)	3	-0.21	1.49	4.79	inactive
7	PLA2G2E (GeneID 30814)	1	-0.698	-1.94	3.53	inactive
8	PLA2G2E (GeneID 30814)	2	3.92	30.5	15.5	inactive
9	PLA2G2E (GeneID 30814)	3	-0.398	0.167	6.03	inactive
10	ADAM17 (GeneID 6868)	1	0.305	5.12	7.34	inactive
11	ADAM17 (GeneID 6868)	2	2.27	19	11.6	inactive
12	ADAM17 (GeneID 6868)	3	1.94	16.6	10.1	inactive
13	NRARP (GeneID 441478)	1	-0.276	1.02	4.02	inactive
14	NRARP (GeneID 441478)	2	-0.586	-1.15	2.98	inactive
15	NRARP (GeneID 441478)	3	-0.372	0.349	3.24	inactive
16	C19orf47 (GeneID 126526)	1	0.8	8.6	7.41	inactive
17	C19orf47 (GeneID 126526)	2	-0.198	1.58	3.6	inactive
18	C19orf47 (GeneID 126526)	3	-0.538	-0.821	2.28	inactive
19	KRT24 (GeneID 192666)	1	1.21	11.4	7.7	inactive
20	KRT24 (GeneID 192666)	2	0.908	9.36	6.1	inactive
21	KRT24 (GeneID 192666)	3	-0.817	-2.78	1.88	inactive
22	SFMBT1 (GeneID 51460)	1	6.72	50.2	21.6	active
23	SFMBT1 (GeneID 51460)	2	0.472	6.29	6.92	inactive
24	SFMBT1 (GeneID 51460)	3	-0.689	-1.88	2.57	inactive

5 entries already listed, ordered by “G2 robust z-score”, low to high.
gene symbol	siRNA no.	G2 robust z-score	G2 cells, % of GMNN control	raw share of cells in G2 (%)	call
C19orf47 (GeneID 126526)	3	-0.538	-0.821	2.28	inactive
NRARP (GeneID 441478)	3	-0.372	0.349	3.24	inactive
C19orf47 (GeneID 126526)	2	-0.198	1.58	3.6	inactive
C19orf47 (GeneID 126526)	1	0.8	8.6	7.41	inactive
KRT24 (GeneID 192666)	1	1.21	11.4	7.7	inactive

The results go on:
no.	gene symbol	siRNA no.	G2 robust z-score	G2 cells, % of GMNN control	raw share of cells in G2 (%)	call
25	PLCXD1 (GeneID 55344)	1	3.42	27	14.9	inactive
26	PLCXD1 (GeneID 55344)	2	1.2	11.4	8.88	inactive
27	PLCXD1 (GeneID 55344)	3	-0.583	-1.13	2.77	inactive
28	CLPTM1L (GeneID 81037)	1	-0.576	-1.09	3.99	inactive
29	CLPTM1L (GeneID 81037)	2	0.168	4.15	6.12	inactive
30	CLPTM1L (GeneID 81037)	3	-0.902	-3.38	1.45	inactive
31	SEPTIN14 (GeneID 346288)	1	-0.548	-0.885	3.96	inactive
32	SEPTIN14 (GeneID 346288)	2	-1.23	-5.7	2.73	inactive
33	SEPTIN14 (GeneID 346288)	3	0.821	8.74	9.68	inactive
34	KCTD9 (GeneID 54793)	1	0.237	4.63	6.97	inactive
35	KCTD9 (GeneID 54793)	2	1.77	15.4	9.99	inactive
36	KCTD9 (GeneID 54793)	3	0.856	8.99	7.88	inactive
37	TMLHE (GeneID 55217)	1	0.0505	3.32	7.89	inactive
38	TMLHE (GeneID 55217)	2	0.0158	3.08	5.54	inactive
39	TMLHE (GeneID 55217)	3	-0.491	-0.486	4.13	inactive
40	LOC441347 (retired record) (GeneID 441347)	1	-0.72	-2.1	2.81	inactive
41	LOC441347 (retired record) (GeneID 441347)	2	-0.537	-0.809	3.11	inactive
42	LOC441347 (retired record) (GeneID 441347)	3	0.212	4.46	4.64	inactive
43	RNF14 (GeneID 9604)	1	0.897	9.28	6.37	inactive
44	RNF14 (GeneID 9604)	2	2.37	19.7	12.6	inactive
45	RNF14 (GeneID 9604)	3	0.313	5.17	6.85	inactive
46	HELZ2 (GeneID 85441)	1	-0.299	0.866	6.07	inactive
47	HELZ2 (GeneID 85441)	2	3.03	24.3	15.4	inactive
48	HELZ2 (GeneID 85441)	3	-1.4	-6.87	1.89	inactive
